Values joined by “and” are separate entries in the source; they are usually repeats but may differ in a detail not shown here. Identical values can stand only once. The list shows a part of the results. Shown are side measurements of this screen, not its main read-out; they come without a call. Compounds called inactive in the main read-out are mostly missing here. Words in brackets tell the shape of the fitted curve; partial curves, single points and poor fits give uncertain potencies.

This assay in a line: Cell signaling CRE-BLA (Fsk stim). The following applies: CHO CRE-bla reporter (cAMP response element driving beta-lactamase), forskolin EC10, beta-lactamase ratio; measured here: 460 nm blue channel. The procedure, abridged:
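CRE-bla CHO reporter cells treated with compound titration plus EC10 NKH 477 (water-soluble forskolin), incubated 3 h at 37 °C; CCF4 loading 2 h at room temperature, 460/530 nm emission ratio read, AC50 values derived for positive or negative modulators.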
Turning to `COc1cc2c(cc1OC)C(c1ccc3c(c1)OCO3)C1=C(CC(C)(C)CC1=O)N2` (stereo unspecified), the AC50 is 12.6 µM [rising, partial curve]. The value for `O=C(Cn1nc(-c2ccccc2)c2ccccc2c1=O)NCC1CCCO1` (stereo unspecified) was 12.6 µM [rising, single point]; that for `COCCOC(=O)c1c(C)oc2ccc(NS(=O)(=O)c3ccccc3)cc12` was 10 µM [rising, partial curve]. Turning to `COc1ccccc1N(C(=O)c1snc(C(N)=O)c1N)C(C(=O)NC1CCCC1)c1ccco1` (stereo unspecified), the AC50 was 3.16 µM [rising, single point]. The value for `CCN(CC)S(=O)(=O)c1cccc(C(=O)Nc2cc(C)nn2-c2nc(C)cc(C)n2)c1` was 3.98 µM [falling, single point]; that for `CC(C)c1ccc(NC(=O)N2CCC(c3nc4ccccc4o3)CC2)cc1` was 0.631 µM [falling, single point].

On to `CCOc1cc(C2NC(=O)NC(O)(C(F)(F)F)C2C(=O)c2ccc(Cl)cc2)ccc1O` (stereo unspecified), for which the AC50 was 0.00398 µM [falling, full curve, poor fit]. The value for `COCCCN1C(=O)C(=O)/C(=C(/O)c2ccc(OCC(C)C)cc2C)C1c1cccnc1` (stereo unspecified) was 0.00316 µM [rising, full curve, poor fit]; that for `CN1CCN(c2ncc3nc(CCc4ccccc4)c(=O)n(Cc4cccs4)c3n2)CC1` was 10 µM [rising, partial curve]. The value for `CCC(=O)N1c2ccc(S(=O)(=O)CCC(=O)N3CCN(c4ccccc4)CC3)cc2CC1C` (stereo unspecified) was 0.501 µM [falling, partial curve]; that for `CCOC(=O)c1ccccc1NC(=O)CN(c1ccccc1OC)S(C)(=O)=O` was 1.58 µM [rising, partial curve]; that for `Cc1cc(NC(=O)COC(=O)c2n[nH]c3ccccc23)no1` was 2.51 µM [rising, partial curve, poor fit].

Take `COc1cc(-n2c(=O)c3ccccc3n(Cc3cccnc3)c2=O)cc(OC)c1OC`: the AC50 is 0.316 µM [falling, partial curve]. Next, `CCN(C(=O)c1cccs1)c1nnc(-c2ccncc2)s1`: 0.1 µM [falling, single point]; `Cc1ccc(C(NC(=O)N2CCOCC2)=C(Cl)Cl)cc1F`: 5.01 µM [falling, full curve]. Next, `c1cn2c(NC3CCCC3)c(-c3ccc(N4CCOCC4)cc3)nc2cn1`: 10 µM [rising, partial curve]; `COc1cc(CO)cc(-c2cc(CO)cc(OC)c2OC)c1OC`: 0.00794 µM [falling, full curve, poor fit]; `NC(=O)c1sc2nccc(Nc3ccccc3)c2c1N`: 7.94 µM [falling, partial curve]. As to `CCn1nc(NC(=O)c2ccccn2)c2cc3cc(C)ccc3nc21`, the AC50 is 10 µM [rising, partial curve]. Next, `Cc1ccc(S(=O)(=O)Nc2nc(C)cc(NCCN)n2)cc1`: 0.00316 µM [falling, full curve, poor fit].

Take `Cc1nnc(NC(=O)CSc2nc3c(c(=O)n2C)SC(C)C3)s1` (stereo unspecified): the AC50 was 10 µM [rising, single point]. The value for `COCCn1c(C)cc(C(=O)COC(=O)c2ccc3ncsc3c2)c1C` was 0.00794 µM [falling, full curve, poor fit]; that for `COc1ccc(CC(=O)N(Cc2cc3cc(OC)ccc3[nH]c2=O)C(C)C)cc1` was 12.6 µM [rising, single point]. Next, `O=C(C1CCC1)N(CCc1ccccc1)Cc1nc2ccccc2c(=O)[nH]1`: 0.01 µM [falling, full curve, poor fit]; `Cc1cc(C)nc(-n2nc(C)c(Oc3ccccc3O)c2C)n1`: 10 µM [rising, partial curve]; `Cc1cc(C)c2c3c(c(-c4ccccc4)n2n1)c(=O)n(C)c(=O)n3C`: 0.0501 µM [rising, partial curve, poor fit]. The value for `CC(C)OC(=O)c1c(NC(=O)CCn2nnc3ccccc32)sc2c1CCCC2` was 12.6 µM [rising, partial curve].

With `COc1ccc(CNC(=O)C2CCCN2S(=O)(=O)c2ccccc2)cc1` (stereo unspecified), the AC50 is 0.01 µM [falling, full curve]. Next, `COc1ncc2nc(-c3ccc(Cl)cc3)c(=O)n(-c3ccccc3)c2n1`: 25.1 µM [rising, partial curve]; `c1csc(C2C3=C(Nc4ncnn42)c2ccccc2OC3)c1` (stereo unspecified): 3.16 µM [rising, full curve]; `COc1ccc(-c2nc(C#N)c(NCCc3ccccc3)o2)cc1OC`: 2.51 µM [rising, full curve].

For `Cn1cccc1C(=O)OCC(=O)c1cc2ccccc2o1`, the AC50 is 2.51 µM [falling, full curve].

For `COc1ccc(Cl)cc1NC(=O)CSc1nnc(Cc2cccn2C)n1-c1ccc(F)cc1`, the AC50 was 20 µM [falling, single point]. Next, `CN(C)Cc1ccccc1-c1nc(N(C)C)c2ccccc2n1`: 2.51 µM [rising, full curve].

In the case of `COc1ccc(C2CC(c3ccccc3)Nc3nc(NC(=O)c4ccco4)nn32)cc1` (stereo unspecified), the AC50 is 3.16 µM [falling, partial curve]. Next, `O=C(NCc1cccnc1)C1CCN(S(=O)(=O)c2cccs2)CC1`: 0.1 µM [falling, full curve, poor fit]; `O=C(NC1CCCCC1)C(c1ccncc1)N(CC1CCCO1)C(=O)C(F)(F)F` (stereo unspecified): 25.1 µM [falling, single point]. Next, `COc1ccc(C2CC(c3cc(OC)ccc3OC)n3nnnc3N2)cc1` (stereo unspecified): 10 µM [rising, partial curve]; `COc1ccc(Oc2ncc3nc(-c4cccc(C#N)c4)c(=O)n(CCC#N)c3n2)cc1`: 20 µM [rising, single point]. In the case of `CC(C)N(C)C1CCN(C(=O)Nc2ccc(Cl)c(Cl)c2)CC1`, the AC50 was 25.1 µM [falling, single point]. The value for `COc1ccc(-c2nc3cnc(Oc4ccccc4)nc3n(CCC#N)c2=O)cc1` was 2 µM [rising, full curve]; that for `CCCCNc1cc(NC(C)=O)cc2cc(OC)c(OC)cc12` was 12.6 µM [rising, partial curve]; that for `Cc1cc(C)c2cc(C#N)c(SCC(=O)NCc3ccco3)nc2c1` was 12.6 µM [falling, single point]. Next, `COc1cccc(C(=O)NCCn2ccc3ccccc32)c1`: 10 µM [rising, single point]; `CCCc1nc2scc(-c3ccccc3)c2c(=O)n1N`: 7.94 µM [rising, partial curve]; `CCOC(=O)C1CCN(C(=O)c2cnn3c(C)cc(C)nc23)CC1`: 0.1 µM [falling, full curve]. Next, `COc1cc(C2C3=C(CC(C)(C)CC3=O)Nc3c2c(=O)[nH]c(=O)n3Cc2ccccc2)ccc1O` (stereo unspecified): 10 µM [rising, single point] and 12.6 µM [rising, single point]. Take `OCCSc1ncnc2c1oc1ccccc12`: the AC50 was 12.6 µM [rising, partial curve].

`CN1CCc2c(sc3c2C(=O)NC(c2ccc4c(c2)OCO4)N3)C1` (stereo unspecified): the AC50 is 2 µM [rising, full curve].

For `Cn1c(CCNC(=O)c2ccco2)nc2cc(NC(=O)c3ccco3)ccc21`, the AC50 is 0.0316 µM [falling, full curve, poor fit]. Consider `COc1ccc(OC)c2c(N3CCN(C)CC3)cc(C(F)(F)F)nc12`, for which the AC50 is 10 µM [rising, partial curve]. The value for `CC1(C)Cc2ccccc2C(=NCCCC(=O)O)N1` was 0.0316 µM [rising, partial curve, poor fit]; that for `CC(=O)NCCNc1nc(-c2ccc3c(c2)OCO3)nc2ccccc12` was 12.6 µM [rising, partial curve].

`Cc1nc2cnc(N3CCOCC3)nc2n(Cc2ccc(F)cc2)c1=O`: the AC50 was 3.98 µM [rising, single point]. Take `CCOc1ccccc1C(=O)NCC(=O)OCC(=O)c1ccc2c(c1)OCCO2`: the AC50 is 15.8 µM [rising, partial curve]. The value for `COc1ccccc1N(CC(=O)Nc1cccnc1)S(C)(=O)=O` was 3.98 µM [falling, partial curve]; that for `COCCn1c(=O)c(-c2ccc(F)cc2)nc2cnc(Nc3cccc(OC)c3)nc21` was 3.98 µM [rising, partial curve].

For the molecule `Cc1sc(NC(=O)CSc2nnc(-c3ccc(F)cc3)o2)c(C#N)c1C`, the AC50 is 7.94 µM [rising, single point]. Next, `O=C(CCN1C(=O)C2C3C=CC(C3)C2C1=O)NCc1cccnc1` (stereo unspecified): 0.794 µM [falling, full curve, poor fit]; `Cc1onc(-c2ccccc2Cl)c1C(=O)Nc1ccc(-c2nnc3n2CCCCC3)cc1`: 0.00794 µM [falling, full curve, poor fit]. Regarding `CS(=O)(=O)N1CCC2(CCN(c3ccncc3)CC2)CC1`, the AC50 was 5.01 µM [falling, single point].

As to `COc1c(Br)cc(Br)cc1C(=O)O`, the AC50 is 0.126 µM [falling, partial curve, poor fit]. The value for `O=C(CNC(=O)c1cc2ccccc2o1)NCc1cccs1` was 25.1 µM [rising, single point]; that for `COc1cc(C2NC(=O)NC(O)(C(F)(F)F)C2C(=O)c2ccc(Cl)cc2)ccc1O` (stereo unspecified) was 12.6 µM [rising, partial curve, poor fit].

Turning to `COCCn1c(CCC(=O)O)nc2c1c(=O)[nH]c(=O)n2CC(C)C`, the AC50 was 0.126 µM [falling, single point]. Next, `CCO/C=N/c1c(C#N)c(CC#N)nn1-c1ccccc1`: 0.398 µM [rising, full curve].

The term AC50 denotes the concentration at which the activity in the assay is half-maximal.

The record behind these values is PubChem BioAssay AID662 (National Center for Advancing Translational Sciences (NCATS), 2007).
